Assay results as given in patent publication US20250325573A1, “Anti-Cancer Saccharide-Linked Dithiocarbamate Compounds” (Anglia Ruskin University Higher Education Corporation, priority 2022, published 2025).

Assay: Reaction with CuCl2 to produce the Cu(II) bis(N,N-diethyldithiocarbamate) complex (HPLC)
Settings: 1 mM aqueous, CuCl2 1 mM, FIG. 15

Reaction with copper(II) chloride relative to disulfiram, fast:
CCN(CC)C(=S)SC1O[C@H](CO)[C@@H](O)[C@H](O)[C@H]1O (stereo partly drawn) [G-DDC, Glycosyl diethyldithiocarbamate]
CCN(CC)C(=S)SC1CC(O)C(O)C(CO)O1 (stereo not drawn) [DG-DDC, 2-Deoxy-glycosyl diethyldithiocarbamate]
CCN(CC)C(=S)SC1OC(CO)C(O)C(O)C1NC(C)=O (stereo not drawn) [AG-DDC, 2-N-acetyl-glycosylamine diethyldithiocarbamate]
